Data: patent publication CN110746505A
Numbering of substitutions follows the chain as printed. Results are given in words; binding and its absence hold for the method and conditions named. Some entries that bind do so weakly or less than the wild type. Blank lines part the entries; values can stand above or below the binder they belong to.

The chains behind the UniProt entries cited, without tags or fusion partners. Where a name states a change or a piece, a line headed by the entry shows the natural chain unless it says otherwise. A line that says so, or that is headed by a name, gives the form on record, which may keep a tag or linker.
间皮素-生物素 (Q13421, form named): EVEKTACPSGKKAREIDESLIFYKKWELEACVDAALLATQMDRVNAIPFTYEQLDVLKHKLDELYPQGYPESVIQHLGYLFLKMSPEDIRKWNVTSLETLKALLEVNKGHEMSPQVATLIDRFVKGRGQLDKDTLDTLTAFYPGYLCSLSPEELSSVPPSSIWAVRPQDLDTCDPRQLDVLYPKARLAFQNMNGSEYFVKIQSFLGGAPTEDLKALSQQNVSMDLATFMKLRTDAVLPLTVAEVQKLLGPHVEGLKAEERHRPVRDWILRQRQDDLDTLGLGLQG

Target: 间皮素-生物素 (UniProt Q13421)
Experiment: flow cytometry, CAR-T cells stained with 1 ug mesothelin-biotin and streptavidin-PE

B3: meso3-60F-CAR (protein)
chain: EVQLVESGGGLVQPGGSLRLSCAASGFDLGFYFYACWFRQAPGKGLEWVSCIYTAGSGSTYYASWAKGRFTISRDNSKNTLYLQMNSLRAEDTAVYYCARSTANTRSTYYLNLWGQGTLVTVSSGGGGSGGGGSGGGGSDIQMTQSPSSLSASVGDRVTITCQASQRISSYLSWYQQKPGKVPKLLIYGASTLASGVPSRFSGSGSGTDFTLTISSLQPEDVATYYCQSYAYFDSNNWHAFGGGTKVEIKESKYGPPCPPCPAPPVAGPSVFLFPPKPKDTLMISRTPEVTCVVVDVSQEDPEVQFNWYVDGVEVHNAKTKPREEQFQSTYRVVSVLTVLHQDWLNGKEYKCKVSNKGLPSSIEKTISKAKGQPREPQVYTLPPSQEEMTKNQVSLTCLVKGFYPSDIAVEWESNGQPENNYKTTPPVLDSDGSFFLYSRLTVDKSRWQEGNVFSCSVMHEALHNHYTQKSLSLSLGKPFWVLVVVGGVLACYSLLVTVAFIIFWVRSKRSRLLHSDYMNMTPRRPGPTRKHYQPYAPPRDFAAYRSRVKFSRSADAPAYQQGQNQLYNELNLGRREEYDVLDKRRGRDPEMGGKPRRKNPQEGLYNELQKDKMAEAYSEIGMKGERRRGKGHDGLYQGLSTATKDTYDALHMQALPPR
- binding: binds

B4: meso3-67E-CAR (protein)
chain: B3 chain with F38V, G45E
- binding: binds

Results, then the binder that gave them:

- binding: binds
B1: meso3-CAR (protein)
chain: B3 chain with F38V

- binding: binds
B2: meso3-68R-CAR (protein)
chain: B3 chain with F38V, L46R

- binding: binds
B5: meso3-70G-CAR (protein)
chain: B3 chain with F38V, W48G
